# Measured values reported in PMC5605700.
# Protein sequences, listed by entry. Tags and fused reporters are not part of them.
# UniProt O94817: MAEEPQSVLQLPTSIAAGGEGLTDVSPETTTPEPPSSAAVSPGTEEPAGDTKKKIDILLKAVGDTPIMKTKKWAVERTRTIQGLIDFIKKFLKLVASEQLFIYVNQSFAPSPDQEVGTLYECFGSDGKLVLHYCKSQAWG
# UniProt Q9CQY1: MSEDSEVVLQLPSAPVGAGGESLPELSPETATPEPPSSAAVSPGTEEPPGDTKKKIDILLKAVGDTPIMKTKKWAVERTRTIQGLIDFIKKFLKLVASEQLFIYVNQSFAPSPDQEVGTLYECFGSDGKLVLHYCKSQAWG
# No constants are given. Whether binding was seen depends on the method and setting. In cells and extracts the contact can be indirect. Some results given as binding are weak or reduced against the parent protein; the word gives no strength.
# Assays:
# [1] = molecular target: T1, Tecpr1 (tectonin β-propeller repeat-containing protein 1) (human (endogenous in HEK293)) (UniProt Q7Z6L1); assay: co-IP; immunoprecipitation on HEK293 cells with antibodies against Atg12 or Tecpr1 (rabbit IgG as control), blots probed with Dock180 antibody
# T1 sequence: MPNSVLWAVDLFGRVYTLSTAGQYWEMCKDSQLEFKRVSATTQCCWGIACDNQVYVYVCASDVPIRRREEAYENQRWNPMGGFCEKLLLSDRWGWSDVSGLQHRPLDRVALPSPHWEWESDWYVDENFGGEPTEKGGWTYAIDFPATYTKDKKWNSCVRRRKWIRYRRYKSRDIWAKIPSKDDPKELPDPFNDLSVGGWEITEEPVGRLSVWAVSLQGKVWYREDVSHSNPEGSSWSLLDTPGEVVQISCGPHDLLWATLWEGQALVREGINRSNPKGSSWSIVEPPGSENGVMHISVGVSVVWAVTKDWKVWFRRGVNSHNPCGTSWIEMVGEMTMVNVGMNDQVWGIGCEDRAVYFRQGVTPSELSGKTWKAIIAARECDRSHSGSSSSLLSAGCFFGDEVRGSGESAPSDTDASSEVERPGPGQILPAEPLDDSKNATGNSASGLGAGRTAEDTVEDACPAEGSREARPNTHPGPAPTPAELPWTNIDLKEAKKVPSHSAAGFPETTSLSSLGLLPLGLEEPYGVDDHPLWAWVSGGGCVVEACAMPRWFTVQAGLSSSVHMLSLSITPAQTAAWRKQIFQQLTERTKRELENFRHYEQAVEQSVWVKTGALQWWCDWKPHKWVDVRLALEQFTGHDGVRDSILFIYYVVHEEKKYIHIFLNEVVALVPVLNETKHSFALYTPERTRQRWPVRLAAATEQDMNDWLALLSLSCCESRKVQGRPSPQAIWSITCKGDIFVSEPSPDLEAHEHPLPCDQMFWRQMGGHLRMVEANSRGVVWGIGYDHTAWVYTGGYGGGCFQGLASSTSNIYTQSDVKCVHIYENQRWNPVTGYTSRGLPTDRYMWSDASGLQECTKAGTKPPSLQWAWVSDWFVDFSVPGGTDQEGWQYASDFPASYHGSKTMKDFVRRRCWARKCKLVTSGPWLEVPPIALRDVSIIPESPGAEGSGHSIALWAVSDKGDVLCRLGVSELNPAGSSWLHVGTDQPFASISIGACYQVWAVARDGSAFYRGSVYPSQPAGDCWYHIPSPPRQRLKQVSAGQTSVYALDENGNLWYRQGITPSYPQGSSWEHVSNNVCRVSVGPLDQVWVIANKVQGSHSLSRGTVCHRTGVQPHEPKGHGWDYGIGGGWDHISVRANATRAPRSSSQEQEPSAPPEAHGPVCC
# [2] = molecular target: Atg12 (autophagy related 12) (human (endogenous in HEK293)) (UniProt O94817); assay: as above
# [3] = molecular target: T2, Tecpr1 (tectonin β-propeller repeat-containing protein 1) (mouse (endogenous in TM4)) (UniProt Q80VP0); assay: co-IP; immunoprecipitation on TM4 Sertoli cells with antibodies against Dock180, LC3B, Atg12 or Tecpr1 (rabbit IgG and beads alone as controls), blots probed with LC3B or Dock180 antibodies
# T2 sequence: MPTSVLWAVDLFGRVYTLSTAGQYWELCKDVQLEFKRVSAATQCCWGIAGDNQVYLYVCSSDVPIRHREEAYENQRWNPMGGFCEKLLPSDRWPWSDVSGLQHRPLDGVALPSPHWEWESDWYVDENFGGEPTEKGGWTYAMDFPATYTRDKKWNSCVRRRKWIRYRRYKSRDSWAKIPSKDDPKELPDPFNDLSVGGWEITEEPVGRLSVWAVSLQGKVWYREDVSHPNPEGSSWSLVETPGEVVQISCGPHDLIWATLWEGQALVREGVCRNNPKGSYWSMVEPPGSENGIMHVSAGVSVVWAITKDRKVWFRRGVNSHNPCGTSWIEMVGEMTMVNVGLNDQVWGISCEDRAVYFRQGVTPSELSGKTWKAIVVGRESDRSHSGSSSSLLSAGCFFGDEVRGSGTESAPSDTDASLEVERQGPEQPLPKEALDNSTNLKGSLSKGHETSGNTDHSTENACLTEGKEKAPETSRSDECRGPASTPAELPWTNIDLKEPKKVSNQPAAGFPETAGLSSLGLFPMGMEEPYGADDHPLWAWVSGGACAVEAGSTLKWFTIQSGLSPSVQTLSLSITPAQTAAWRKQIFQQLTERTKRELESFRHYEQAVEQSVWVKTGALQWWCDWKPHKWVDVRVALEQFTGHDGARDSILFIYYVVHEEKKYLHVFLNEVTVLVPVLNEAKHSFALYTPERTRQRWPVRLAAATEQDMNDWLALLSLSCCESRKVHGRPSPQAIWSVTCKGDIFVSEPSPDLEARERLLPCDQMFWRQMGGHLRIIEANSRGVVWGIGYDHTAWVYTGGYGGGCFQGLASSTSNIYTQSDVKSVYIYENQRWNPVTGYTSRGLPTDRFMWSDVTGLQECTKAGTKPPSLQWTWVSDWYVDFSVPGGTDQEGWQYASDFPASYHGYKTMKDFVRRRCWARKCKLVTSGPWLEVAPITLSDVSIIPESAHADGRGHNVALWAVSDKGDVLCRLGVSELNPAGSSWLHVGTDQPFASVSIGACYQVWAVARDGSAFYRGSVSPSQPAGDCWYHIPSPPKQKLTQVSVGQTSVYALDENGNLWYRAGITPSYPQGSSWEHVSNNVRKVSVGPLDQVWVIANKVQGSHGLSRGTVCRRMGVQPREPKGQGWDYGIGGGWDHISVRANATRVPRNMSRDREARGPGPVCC
# [4] = molecular target: Atg12 (autophagy related 12) (mouse (endogenous in TM4)) (UniProt Q9CQY1); assay: as above
binding [1],binding [2],binding [3],binding [4],Substance
binds,binds,–,–,Dock180 (dedicator of cytokinesis 1) (from UniProt Q14185 1-1865)
–,–,binds,binds,Dock180 (dedicator of cytokinesis 1) (from UniProt Q8BUR4 1-1865)
